Values from PubChem BioAssay AID504764 (Drosophila RNAi Screening Center, 2011)

Purpose: 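Genome-wide screen for regulators of Notch-driven gene expression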 (primary screen)
Cells: Drosophila Kc167 cells
Reagent: long dsRNA against Drosophila genes
Duration: about 5 days (4 days dsRNA, then 24 h after transfection)
Treatment: transfection of constitutively active membrane-tethered Notch lacking the extracellular domain, read 24 h later
Read-out: 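Firefly luciferase from an E(spl)m3 reporter with active Notch, plus control-promoter and uninduced reporter wells for normalisation; unnormalised counts, duplicate wells a and b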
Scale: induced reporter light, run 1, well a and induced reporter light, run 1, well b: higher = more light from the Notch target reporter with active Notch; control promoter light, run 1, well a and control promoter light, run 1, well b: higher = more light from the viral control promoter (cell number, transfection, viability); uninduced reporter light, run 1, well a: higher = more light from the Notch target reporter without active Notch
Active means: 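Wells with low control signal or poorly matching duplicates excluded; duplicates averaged; per source plate, z beyond ±2 for induced/control log2 ratio or beyond ±1.8 for induced/uninduced marks a hit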
Meaning of the calls: active = modifier hit (raised or lowered Notch signal); inactive = not a hit
The screen tested about 22,000 reagents; this is an unselected part of those with a known target gene and a result. In the full data, 403 (1.9%) are marked active. 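Unnormalised raw counts per well; ratio z-scores behind the hit calls and whether each hit raises or lowers signal are not deposited.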 The numbers tell different reagents against one gene apart. The record does not give: the amount of reagent.

target	dsRNA no.	induced reporter light, run 1, well a	induced reporter light, run 1, well b	control promoter light, run 1, well a	control promoter light, run 1, well b	uninduced reporter light, run 1, well a	Outcome
CG5800	1	88340	75780	1.04e5	73105	10095	inactive
CG13721	1	1.66e5	1.61e5	1.55e5	1.63e5	7225	inactive
RpS30	1	10620	13832	14170	14735	1095	inactive
COX2 (retired record)	1	1.33e5	1.27e5	1.02e5	1.04e5	11285	inactive
sa	1	1.38e5	1.05e5	1.09e5	98165	8800	inactive
CG4572	1	1.64e5	1.63e5	1.84e5	2.09e5	13370	inactive
meru	1	2.06e5	1.59e5	2.37e5	2.32e5	16905	inactive
meru	2	1.84e5	1.69e5	1.34e5	1.31e5	5365	inactive
meru	3	1.90e5	2.18e5	1.87e5	1.68e5	8915	inactive
CG13540	1	2.08e5	2.26e5	1.99e5	2.09e5	15965	inactive
CG11370	1	1.22e5	94600	1.12e5	76765	5838	inactive
CG8369	1	83355	91565	81395	73440	4330	inactive
chico	1	1.27e5	1.47e5	1.47e5	1.63e5	13235	inactive
TfIIA-S-2	1	84540	1.11e5	97745	1.25e5	6315	active
AspRS	1	65535	64090	65890	56400	5090	inactive
muc	1	73655	71415	57145	51550	4925	inactive
heph	1	34685	85765	99035	1.19e5	6438	inactive
heph	2	46115	74555	1.14e5	1.19e5	6015	active
heph	3	66700	63965	97735	1.26e5	4760	inactive
heph	4	76985	80880	1.14e5	1.59e5	7120	inactive
CG10646	1	1.63e5	1.33e5	2.27e5	1.54e5	11135	inactive
papi	1	1.64e5	1.88e5	1.76e5	2.03e5	18030	inactive
pns	1	91645	98525	1.54e5	1.21e5	6515	inactive
mTerf3	1	1.42e5	1.16e5	73420	70825	9955	inactive
CG34126	1	1.48e5	1.41e5	1.78e5	1.75e5	10775	inactive
CG18581	1	1.71e5	1.50e5	3.00e5	2.68e5	9695	inactive
CG4570	1	17965	17400	20330	14430	1050	inactive
CG32202	1	2.07e5	1.96e5	2.23e5	1.75e5	10715	inactive
moon	1	1.10e5	1.37e5	2.31e5	2.10e5	10035	inactive
Fatp (retired record)	1	2.13e5	2.76e5	2.06e5	2.36e5	18320	inactive
CG15525	1	1.09e5	1.05e5	1.55e5	1.93e5	10995	inactive
chinmo	1	1.95e5	2.08e5	1.84e5	1.98e5	17905	inactive
chinmo	2	2.12e5	1.71e5	1.41e5	1.67e5	12385	inactive
chinmo	3	93045	1.09e5	69070	55515	8585	inactive
chinmo	4						active
Usp47	1	99755	1.03e5	84570	34630	11160	inactive
CG11267	1	1.79e5	1.81e5	2.48e5	2.80e5	11270	inactive
CysRS	1	1.02e5	1.28e5	2.02e5	2.11e5	9310	inactive
Lcp3	1	1.52e5	1.24e5	1.56e5	1.99e5	13582	inactive
CR31032	1						inactive
lbk	1	75015	86170	1.37e5	1.63e5	7240	inactive
CG15531	1	1.15e5	1.38e5	1.70e5	1.59e5	11155	inactive
yellow-d2	1	2.62e5	2.65e5	1.89e5	2.38e5	21075	inactive
Hasp	1	1.65e5	1.72e5	1.53e5	1.35e5	12075	inactive
CG8046	1	2.03e5	2.16e5	1.77e5	2.02e5	15035	inactive
CG6726	1	1.76e5	1.64e5	2.05e5	2.30e5	14330	inactive
Pvf2	1	1.53e5	1.42e5	2.19e5	2.20e5	10135	inactive
Pvf2	2	71595	43160	55815	53535	3488	inactive
phu	1	86445	77055	81685	88360	6330	inactive
CG6739	1	1.84e5	1.41e5	1.76e5	1.61e5	8260	inactive

Looked up above.
Result of chinmo #2 under “control promoter light, run 1, well b”: 1.67e5
For “Outcome”, COX2 (retired record) shows inactive
Value of CG11370 in “uninduced reporter light, run 1, well a”: 5838
CG4572, induced reporter light, run 1, well a → 1.64e5
Under “Outcome”, phu is entered as inactive
